The target of this experiment is mouse β2-microglobulin (mouse) (UniProt P01887). Nature of the experiment: condition: only pH 2.5 without added NaCl (50 μM protein); AUC; sedimentation velocity, 25 °C, 48,000 rpm, 50 μM protein, pH 2.5 without added NaCl, absorbance at 280 nm, SEDFIT; both purified.

No constants are given. Whether binding was seen depends on the method and setting.

B1: mouse β2-microglobulin (natural protein, UniProt P01887 21-119, looked up)
chain: IQKTPQIQVYSRHPPENGKPNILNCYVTQFHPPHIEIQMLKNGKKIPKVEMSDMSFSKDWSFYILAHTEFTPTETDTYACRVKHASMAEPKTVYWDRDM
notes: β2-microglobulin, mouse; In the AUC the protein was acid-unfolded at pH 2.5; also called mβ2m; source: expressed and prepared as described previously [47]; purified (anion exchange at pH 8.5, gel filtration), lyophilised
As to B1, the binding result is reported as “no binding”.

For the origin of these results see publication PMC4773402, “Comparison of the aggregation of homologous β2-microglobulin variants reveals protein solubility as a key determinant of amyloid formation” (Journal of Molecular Biology, 2016).
